Results are given in words; binding and its absence hold for the method and conditions named. In cells and extracts the contact can be indirect.

The experiment concerns the target T1, sirtuin1 (SIRT1) (human (endogenous in OECM1 and HSC3)), Q96EB6.
T1 chain: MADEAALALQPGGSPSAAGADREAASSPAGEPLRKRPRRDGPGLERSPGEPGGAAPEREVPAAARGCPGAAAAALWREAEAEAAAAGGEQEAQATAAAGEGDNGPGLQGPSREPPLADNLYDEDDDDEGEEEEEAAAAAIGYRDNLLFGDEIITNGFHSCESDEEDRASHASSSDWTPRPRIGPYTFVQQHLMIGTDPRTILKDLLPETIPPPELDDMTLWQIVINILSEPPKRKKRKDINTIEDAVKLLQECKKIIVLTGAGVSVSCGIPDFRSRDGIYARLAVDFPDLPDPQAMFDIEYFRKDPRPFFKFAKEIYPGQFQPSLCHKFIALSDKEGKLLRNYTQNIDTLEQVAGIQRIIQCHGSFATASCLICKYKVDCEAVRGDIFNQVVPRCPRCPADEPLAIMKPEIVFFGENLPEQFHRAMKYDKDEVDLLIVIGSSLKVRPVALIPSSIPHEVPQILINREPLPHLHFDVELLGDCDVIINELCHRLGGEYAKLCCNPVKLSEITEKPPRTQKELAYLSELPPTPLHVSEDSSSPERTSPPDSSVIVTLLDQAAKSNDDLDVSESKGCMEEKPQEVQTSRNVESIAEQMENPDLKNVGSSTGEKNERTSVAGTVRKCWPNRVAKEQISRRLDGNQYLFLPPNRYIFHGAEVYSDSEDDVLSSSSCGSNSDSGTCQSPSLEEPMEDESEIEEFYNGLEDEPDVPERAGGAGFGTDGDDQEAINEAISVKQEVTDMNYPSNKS
Briefly: co-IP; nuclear extracts of OECM1 and HSC3 cells, lysed with RIPA buffer; 2 mg protein immunoprecipitated with a SIRT1 or Smad4 antibody (Pierce Crosslink IP Kit); western blot for Smad2, Smad4 and SIRT1; endogenous proteins. The note with it: remark: other sources report otherwise. On the technique in general: A western blot detects proteins with antibodies after separation by electrophoresis.

B1: Smad2, Q15796 1-467 (protein)
chain: MSSILPFTPPVVKRLLGWKKSAGGSGGAGGGEQNGQEEKWCEKAVKSLVKKLKKTGRLDELEKAITTQNCNTKCVTIPSTCSEIWGLSTPNTIDQWDTTGLYSFSEQTRSLDGRLQVSHRKGLPHVIYCRLWRWPDLHSHHELKAIENCEYAFNLKKDEVCVNPYHYQRVETPVLPPVLVPRHTEILTELPPLDDYTHSIPENTNFPAGIEPQSNYIPETPPPGYISEDGETSDQQLNQSMDTGSPAELSPTTLSPVNHSLDLQPVTYSEPAFWCSIAYYELNQRVGETFHASQPSLTVDGFTDPSNSERFCLGLLSNVNRNATVEMTRRHIGRGVRLYYIGGEVFAECLSDSAIFVQSPNCNQRYGWHPATVCKIPPGCNLKIFNNQEFAALLAQSVNQGFEAVYQLTRMCTIRMSFVKGWGAEYRRQTVTSTPCWIELHLNGPLQWLDKVLTQMGSPSVRCSSMS
Regarding B1, the binding entry is reported as “no binding”.

The record behind these values is article PMC4258025.
